Measurements from article PMC7819943, “Rice protein-binding microarrays: a tool to detect cis-acting elements near promoter regions in rice”.
Some of the results follow.

These sequences were tested against T1, OsSMF1 (Oryza sativa, UniProt Q6ZLB0 1-436) (assay: protein-binding microarray (RPBM); PBS, 2% BSA, 51.3 ng/ul salmon testes DNA, 50 uM zinc acetate, 200 nM TF, 25 C, 1 h; high values mean tight binding). Conditions: protein: recombinant; tags: N-terminal polyhistidine and DsRed monomer fusion (pET32a); chain copies: 2; label: CyDye5-dUTP incorporated in the synthesized complementary strand; 3' TTTTT single-stranded linker to array surface; dsDNA, one strand shown.
T1 sequence: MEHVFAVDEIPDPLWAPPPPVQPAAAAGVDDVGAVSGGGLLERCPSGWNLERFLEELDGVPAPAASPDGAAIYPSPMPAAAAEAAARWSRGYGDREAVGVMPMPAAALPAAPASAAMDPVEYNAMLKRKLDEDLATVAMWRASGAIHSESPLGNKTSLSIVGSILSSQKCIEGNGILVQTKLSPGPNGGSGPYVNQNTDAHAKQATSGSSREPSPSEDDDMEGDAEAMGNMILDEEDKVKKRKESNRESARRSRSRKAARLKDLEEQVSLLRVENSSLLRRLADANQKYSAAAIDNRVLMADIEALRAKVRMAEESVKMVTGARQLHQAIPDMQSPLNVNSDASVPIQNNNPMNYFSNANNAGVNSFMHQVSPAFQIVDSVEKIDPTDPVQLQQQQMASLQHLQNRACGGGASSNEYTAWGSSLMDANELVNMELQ
Outline: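 An Axon 4000B scanner gave the binding signal as per-feature fluorescence intensity in arbitrary units. This followed washing of a custom Agilent array that had been incubated for 1 h at 25 °C with 200 nM protein in PBS, 2% BSA, salmon testes DNA and 50 µM zinc acetate. The proteins were transcription factors fused at the N-terminus to polyhistidine and DsRed, expressed in E. coli BL21-CodonPlus and purified on Ni–NTA.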

Row | Sequence | binding signal
1 | GCCGAGTAGAGGACAAACACACACGTGTTCATCCTAACGACGGAGTCACCTAGTGCAG | 3300 fluorescence intensity (a.u.)
2 | TGCGCACGAGCAACACGTACGCAAGGGAGAAGGAGAGATCCGGAGTCACCTAGTGCAG | 4290 fluorescence intensity (a.u.)
3 | GATGTTCAGATGTACAACAGTAATTTGATTGCATCGGCTTCGGAGTCACCTAGTGCAG | 3270 fluorescence intensity (a.u.)
4 | GCTCTGCACGTGCCCTGCGGTTGCTCCATGTTGATAGTAGCGGAGTCACCTAGTGCAG | 22500 fluorescence intensity (a.u.)
5 | CTAGATGAATACCCCGCCACGTTGCTGCGGAAAATTAAGTCGGAGTCACCTAGTGCAG | 3690 fluorescence intensity (a.u.)
6 | TAATTTAGTTTTATATAAGTTGAAGGACGTGTTATATTAGCGGAGTCACCTAGTGCAG | 3180 fluorescence intensity (a.u.)
7 | GAACGGAGGCGCTTTATACTTCTCTTCGCCTTGTCAAATTCGGAGTCACCTAGTGCAG | 3150 fluorescence intensity (a.u.)
8 | TGACATGTGGGGTTCTAGGAATAGGCGTGTATCTAACAAGCGGAGTCACCTAGTGCAG | 3480 fluorescence intensity (a.u.)
9 | ATCATCTCCTCTCGGTCCATCACAACACCTCCGCCTCCCACGGAGTCACCTAGTGCAG | 3160 fluorescence intensity (a.u.)
10 | ATTCTGTCTCCTTTGCCTGTCGTCACGCTGTCATCACGCTCGGAGTCACCTAGTGCAG | 4480 fluorescence intensity (a.u.)
11 | GATTAATGATGAAACCCATTCCATAACCCTGGACTAATTCCGGAGTCACCTAGTGCAG | 26300 fluorescence intensity (a.u.)
12 | GTTCTTGTCCTAAGTGGAACAACCACGTCATATCACGGGTCGGAGTCACCTAGTGCAG | 7760 fluorescence intensity (a.u.)
13 | CATCACGCTGACGTGTCCTTTCGTTTGGACACGGACATCTCGGAGTCACCTAGTGCAG | 15000 fluorescence intensity (a.u.)
14 | CGGCACACCCAGCGATGGCCGCCTCATCCACCGCCACGTTCGGAGTCACCTAGTGCAG | 4000 fluorescence intensity (a.u.)
15 | GCTGCAGCTGCGGCAGTAATGGCCGGGTTCCCGGGTGTTGCGGAGTCACCTAGTGCAG | 3160 fluorescence intensity (a.u.)
16 | GAGGGCTCTGTTTCTGGAAGATATGACGTGGGAGTGGGAGCGGAGTCACCTAGTGCAG | 10100 fluorescence intensity (a.u.)
17 | AGCAACATACATGGGTATTACGGCCACATGCGCGCTAATGCGGAGTCACCTAGTGCAG | 3410 fluorescence intensity (a.u.)
18 | AGGGAGAGGATTCCCGGCGAGCCGGCGGGCGGGCGGGATACGGAGTCACCTAGTGCAG | 3240 fluorescence intensity (a.u.)
19 | TAAGTTTAGTTGATATGACATGTAAGTGTACAGTTACACTCGGAGTCACCTAGTGCAG | 3710 fluorescence intensity (a.u.)
20 | CCTCTCCCTGTCGGCCTCGACGGCCATCCCTCCCTCCCTACGGAGTCACCTAGTGCAG | 31800 fluorescence intensity (a.u.)
21 | AGAGGGTTGGTGTAGTGGCAGGGGAGTGACGGTGCGCGGTCGGAGTCACCTAGTGCAG | 3180 fluorescence intensity (a.u.)
22 | AGGTTGCAAAGAAACAGCCAAGCAAATGGCAGGAGTCCAGCGGAGTCACCTAGTGCAG | 3340 fluorescence intensity (a.u.)
23 | AACCAATCACGTCGCAGATAAGGCCTGACAGGTGTGCCCCCGGAGTCACCTAGTGCAG | 4420 fluorescence intensity (a.u.)

From no. 4 up to 5, as listed above:
Row | Sequence | binding signal
4 | GCTCTGCACGTGCCCTGCGGTTGCTCCATGTTGATAGTAGCGGAGTCACCTAGTGCAG | 22500 fluorescence intensity (a.u.)
5 | CTAGATGAATACCCCGCCACGTTGCTGCGGAAAATTAAGTCGGAGTCACCTAGTGCAG | 3690 fluorescence intensity (a.u.)
